Values from PubChem BioAssay AID1259254 (NCATS, 2017).
Here is one part, drawn at random, of about 59,000 reagents tested. Over the whole deposit, about 1,550 (2.6%) were called active. 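G2 share is only a proxy for re-replication; each gene was hit by three separate siRNAs, and active genes were retested.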 Reagents against one gene are numbered here. Further read-outs or replicates are left out here. Not given: the amount of reagent.

- Assay: 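Genome-wide screen for genes that prevent DNA re-replication in cancer cells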 (primary screen)
- Cell system: human HCT116 colorectal cancer cells
- Reagents: single siRNA against human genes
- Time to read-out: 3 days
- Measurement: 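Nuclei stained with Hoechst and imaged; cell-cycle phase assigned by DNA content; G2 share scaled per plate, non-targeting siRNA 0%, GMNN siRNA 100%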
- Scale: G2 robust z-score: higher = more G2 cells, more excess DNA replication
- Rule for the call: 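Active siRNAs have a G2 robust z of 5 or more median absolute deviations over the median, which in these data means about 38% or higher of GMNN control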

gene symbol,reagent no.,G2 robust z-score,Call
TFPI,1,0.222,inactive
TFPI,2,0.641,inactive
TFPI,3,2.72,inactive
NEFH,1,-0.0955,inactive
NEFH,2,1.08,inactive
NEFH,3,-0.913,inactive
RPS14P9,1,-0.242,inactive
RPS14P9,2,-0.776,inactive
RPS14P9,3,1.11,inactive
CPEB2,1,-0.24,inactive
CPEB2,2,2.28,inactive
CPEB2,3,-0.579,inactive
LILRB3,1,-0.961,inactive
LILRB3,2,-0.342,inactive
LILRB3,3,-1.34,inactive
FGF18,1,0.813,inactive
FGF18,2,1.71,inactive
FGF18,3,-0.923,inactive
C20orf141,1,0.617,inactive
C20orf141,2,2.7,inactive
C20orf141,3,1.54,inactive
EEF2K,1,1.4,inactive
EEF2K,2,-0.199,inactive
EEF2K,3,0.302,inactive
LIN7B,1,-0.29,inactive
LIN7B,2,7.62,active
LIN7B,3,-0.381,inactive
RAD51C,1,-1.11,inactive
RAD51C,2,-0.517,inactive
RAD51C,3,2.35,inactive

Records above with an active call:
gene symbol,reagent no.,G2 robust z-score,Call
LIN7B,2,7.62,active

The listing continues.
gene symbol,reagent no.,G2 robust z-score,Call
ZNF962P,1,0.761,inactive
ZNF962P,2,0.228,inactive
ZNF962P,3,1.97,inactive
LRSAM1,1,-0.646,inactive
LRSAM1,2,0.863,inactive
LRSAM1,3,-0.159,inactive
MIOS,1,-0.774,inactive
MIOS,2,-1.21,inactive
MIOS,3,2.92,inactive
ZSWIM2,1,-0.321,inactive
ZSWIM2,2,0.459,inactive
ZSWIM2,3,-0.782,inactive
CAP2,1,-0.292,inactive
CAP2,2,-1.03,inactive
CAP2,3,3.19,inactive
OR5A1,1,-0.179,inactive
OR5A1,2,-0.657,inactive
OR5A1,3,0.186,inactive
ARHGEF39,1,0.0678,inactive
ARHGEF39,2,0.381,inactive
ARHGEF39,3,0.356,inactive
USP17L2,1,2.59,inactive
USP17L2,2,-0.00385,inactive
USP17L2,3,-0.306,inactive
CNOT8,1,0.035,inactive
CNOT8,2,-0.855,inactive
CNOT8,3,-0.757,inactive
FAM53B,1,-0.886,inactive
FAM53B,2,0.0206,inactive
FAM53B,3,6.85,active
ZNF101,1,0.0763,inactive
ZNF101,2,3.34,inactive
ZNF101,3,2.33,inactive
ASPDH,1,-0.24,inactive
ASPDH,2,0.288,inactive
ASPDH,3,0.0026,inactive
SNF8,1,-0.542,inactive
SNF8,2,3.5,inactive
SNF8,3,-0.341,inactive
